These are yes or no findings as the source states them, for the method shown. In cells and extracts the contact can be indirect. Some results given as binding are weak or reduced against the parent protein; the word gives no strength.
Target: GCP2 (mouse (endogenous in Neuro2a)) (UniProt Q921G8)
Assay: co-IP; Neuro2A extracts (HEPES buffer pH 7.6, 75 mM NaCl, 1% Nonidet P-40; diluted with TBST to 0.6 mg/ml) incubated with Protein A beads saturated with monoclonal antibody GCP2-01 to GCP2; reciprocal immunoprecipitation

The chains behind the UniProt entries cited, without tags or fusion partners.
UniProt Q921G8: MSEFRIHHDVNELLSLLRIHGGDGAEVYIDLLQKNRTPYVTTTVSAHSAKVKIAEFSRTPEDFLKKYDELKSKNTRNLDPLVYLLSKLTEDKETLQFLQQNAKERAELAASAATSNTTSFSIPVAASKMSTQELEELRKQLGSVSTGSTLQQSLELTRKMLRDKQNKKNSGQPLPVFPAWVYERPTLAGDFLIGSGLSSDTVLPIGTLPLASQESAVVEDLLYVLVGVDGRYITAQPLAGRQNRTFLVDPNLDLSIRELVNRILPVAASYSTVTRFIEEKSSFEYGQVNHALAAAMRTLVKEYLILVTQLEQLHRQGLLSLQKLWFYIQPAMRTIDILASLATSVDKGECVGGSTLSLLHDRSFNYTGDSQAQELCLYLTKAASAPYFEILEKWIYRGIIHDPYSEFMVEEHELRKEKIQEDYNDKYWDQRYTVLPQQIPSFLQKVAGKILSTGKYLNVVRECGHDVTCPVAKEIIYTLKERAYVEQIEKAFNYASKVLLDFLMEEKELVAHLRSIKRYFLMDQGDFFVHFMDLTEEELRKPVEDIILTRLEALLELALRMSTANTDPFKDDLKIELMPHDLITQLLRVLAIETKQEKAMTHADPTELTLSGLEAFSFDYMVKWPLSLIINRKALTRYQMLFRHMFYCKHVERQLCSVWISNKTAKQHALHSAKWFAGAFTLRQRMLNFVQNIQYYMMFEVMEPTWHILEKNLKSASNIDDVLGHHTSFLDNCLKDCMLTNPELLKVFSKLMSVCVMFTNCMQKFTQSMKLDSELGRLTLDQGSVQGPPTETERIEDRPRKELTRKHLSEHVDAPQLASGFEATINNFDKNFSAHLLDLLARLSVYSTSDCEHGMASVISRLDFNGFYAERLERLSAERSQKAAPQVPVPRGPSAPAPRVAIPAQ
UniProt Q9D4F8: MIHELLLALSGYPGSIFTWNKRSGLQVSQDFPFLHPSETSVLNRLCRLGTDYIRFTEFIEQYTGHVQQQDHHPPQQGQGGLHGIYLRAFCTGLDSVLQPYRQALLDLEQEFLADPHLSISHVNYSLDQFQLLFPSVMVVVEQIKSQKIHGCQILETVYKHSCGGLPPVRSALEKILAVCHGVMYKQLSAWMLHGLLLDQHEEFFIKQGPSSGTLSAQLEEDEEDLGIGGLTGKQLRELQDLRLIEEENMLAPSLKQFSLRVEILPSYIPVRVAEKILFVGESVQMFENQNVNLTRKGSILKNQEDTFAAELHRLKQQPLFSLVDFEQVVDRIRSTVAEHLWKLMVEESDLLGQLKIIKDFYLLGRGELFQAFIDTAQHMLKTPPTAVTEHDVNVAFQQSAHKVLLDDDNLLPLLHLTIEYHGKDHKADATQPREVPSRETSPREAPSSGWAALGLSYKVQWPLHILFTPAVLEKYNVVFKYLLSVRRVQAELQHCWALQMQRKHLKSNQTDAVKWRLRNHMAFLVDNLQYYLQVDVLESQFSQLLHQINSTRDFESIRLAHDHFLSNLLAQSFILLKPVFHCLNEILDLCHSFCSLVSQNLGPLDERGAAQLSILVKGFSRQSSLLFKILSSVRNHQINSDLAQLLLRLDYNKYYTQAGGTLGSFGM

In the case of GCP4 (from UniProt Q9D4F8 1-667), the binding is reported as “binds”.
